# Library screen at single concentrations

The values are deposited in ChEMBL (CHEMBL3988442, “University of Dundee, Small-Polar-MMV Screening Library” (2021)).

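Assay of Toxoplasma gondii numbers, read through their beta-galactosidase reporter with a colour substrate. Compounds at 10 µM. Higher reads as fewer parasites (inferred from which compounds were picked for retests). Size under these conditions: about 67,000 compounds, about 260 of them at 50% or above in at least one test.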

Results are given as percent effect. The controls that fix the scale are not given in the record; negative values are as filed. Compounds were drawn at random from those tested, without regard to their results.

* O=C(O)CC(NC(=O)CCCc1cccs1)c1ccc(F)cc1 (stereo unspecified) : 9.856%
* NC(=O)N1CCC2(CCN(Cc3cccc(F)c3)CC2)CC1.O=C(O)C(F)(F)F : 5.516%
* CC(C)c1nc(CSc2nnc(Cn3cncn3)o2)cs1 : -9.199%
* COCC(C)NC(=O)CN1CCC2(CC1)OCCO2 (stereo unspecified) : -14.65%
* COc1cccc(CN(C)S(=O)(=O)N2CCOCC2)c1 : 4.173%
* CS(=O)(=O)N1CCOC2(CCCN(c3cnccn3)C2)C1.O=C(O)C(F)(F)F (stereo unspecified) : -2.499%
* CC(C)(C)C(=O)NCC(=O)Nc1cccnc1 : 11.4%
* O=C(c1cnco1)N1CCC(Cc2cccc3ncccc23)CC1 : 9.433%
* COCCCn1ccc(NCc2cnc(C(C)(C)C)s2)n1 : -18.85%
* Cc1cc(C2CCCN(C(=O)c3c(C)nn4cccnc34)C2)n[nH]1 (stereo unspecified) : -1.19%
* Cc1cc2c(cc1NC(=O)NCC(C)C)OCO2 : -0.1371%
* Cc1nc2ncccn2c1C(=O)N1CCc2[nH]cnc2C1 : -4.959%
* CN1C(=O)C(c2cccnc2)CC12CCN(C(=O)c1ccc[nH]1)CC2 (stereo unspecified) : -4.039%
* CCc1ccc(O)c(C(=O)N2CCCN(CC(=O)N(CC)CC)CC2)c1 : 2.308%
* COC(=O)N1CCCCC1C(=O)N1CCN(c2cccnc2)CC1 (stereo unspecified) : -12.74%
* O=C(O)C(F)(F)F.O=C(O)C(F)(F)F.[H][C@@]12OCCN(Cc3ccc(OC)cc3)[C@@]1([H])CC[C@H]2Oc1ccccn1 : 8.845%
* COc1cccc2c1OCC(CNC(=O)Cc1cnccn1)C2 (stereo unspecified) : 4.322%
* CCS(=O)(=O)c1ccc2oc([C@H]3CCN(Cc4ccccn4)C3)nc2c1 : 1.413%
* Cc1ccc(N2CC(c3nccc(C)n3)C2)nn1 : 5.204%
* c1ccc(-c2nc(CCNC3CCOC4(CCOCC4)C3)no2)cc1 (stereo unspecified) : -4.689%
* COc1cc(C)sc1C(=O)NCCC(=O)N(C)c1ccccc1 : 1.536%
* CCC(C)(N)c1nc(C(C)C)cc(=O)[nH]1.Cl (stereo unspecified) : 6.715%
* O=C1CN(C(=O)C2CCOC2)CCN1Cc1ccc(Cl)cc1 (stereo unspecified) : -9.296%
* Cc1ccccc1-c1noc(CN2CCC(c3ccn[nH]3)CC2)n1 : -3.341%
* COCCC1(CO)CCCN(C(=O)c2cc(=O)[nH]c(=O)[nH]2)C1 (stereo unspecified) : 0.8136%
* CSCc1cccc(S(=O)(=O)NCCO)c1 : 14.63%
* Cc1cnn(CCNCc2c(C)nn(CCO)c2C)c1 : -4.034%
* CCCN(CC)C(=O)c1cc(Cn2c(C)nc3ccccc32)[nH]n1 : -20.37%
* c1ccc(-c2noc(CCNC3CCOC4(CCOCC4)C3)n2)nc1 (stereo unspecified) : -4.555%
* CCC(=O)N1CCC(c2nc3ccc(NC(C)C)cn3n2)CC1 : -2.705%
* CCOc1cc(C(=O)N(C)C)ccc1NC(=O)C(C)c1ccsc1 (stereo unspecified) : -6.24%
* CCOCC(O)CN1CCN(C(=O)c2ccc(N(C)C)nn2)CC1 (stereo unspecified) : -15.9%
* CC(CN1CCCC1=O)NC(=O)c1cc(-c2cccc(Cl)c2)no1 (stereo unspecified) : 9.67%
* O=C(O)CNc1cc(-c2cc(C3CC3)ncn2)c2cc[nH]c2n1 : 3.278%
* CCn1c(C)cc(C(=O)N2CCCC(c3nc(C)no3)C2)c1C (stereo unspecified) : 0.2953%
* Cc1nc(N)c2ccc(C3CCCN3)nc2n1.Cl (stereo unspecified) : 8.446%
* O=C(Nc1cccnc1)c1noc2c1CN(S(=O)(=O)C1CC1)CC2 : 2.671%
* O=C1CC(c2ccncc2)c2c(c(C(=O)O)cn2-c2ccccc2)N1 (stereo unspecified) : 3.774%
* CCc1nnc2n1CCN(C(=O)c1ccc3c(c1)NC(=O)CO3)C2 : 0.05596%
* Cc1cnn(CCNCc2ccccc2OCc2cccnc2)c1 : -1.069%
* COc1cnc(N2C[C@@H](CN3CCOCC3)[C@@H](CO)C2)nc1 : 8.43%
* CN(CCOCC(F)(F)F)CC1CCN(CCO)CC1 : 1.693%
* O=C(O)C(F)(F)F.O=C(c1ccco1)N1CCc2ncnc(Oc3cccnc3)c2CC1 : 2.833%
* COc1ccc(CN(C)CC2(O)CCNC2)cc1 (stereo unspecified) : 3.053%
* [H][C@@]12CN(c3ncc(C)cn3)C[C@@]1([H])N(CC1CC1)C(=O)CO2 : -1.755%
* CC(C)CN1CCN(C)C(CCO)C1 (stereo unspecified) : 20.6%
* Cc1cc(-c2nccs2)nc(C2CCN(Cc3ccncc3)CC2)n1.Cl : -9.044%
* COCCC1CCCCN1Cc1nc(Cc2cccc(F)c2)no1 (stereo unspecified) : -4.056%
* COCC1CC2(CCN(C(=O)c3ccco3)CC2)CN1C(C)C.O=C(O)C(F)(F)F (stereo unspecified) : -6.758%
* [H][C@@]12CN(CC3CCOCC3)CCO[C@]1([H])CN(Cc1nc(C)cs1)C2 : -12.37%
* Cl.O=C(O)C1(Cc2ccc(-c3cccs3)cc2)CCNC1 (stereo unspecified) : 6.732%
* Cc1ccccc1CNC(=O)CN1CCN(Cc2nccn2C)CC1 : 6.376%
* CCN(C(=O)C1Cc2cc(Cl)ccc2O1)C1CC1 (stereo unspecified) : 6.58%
* [H][C@@]12COCC[C@]1([H])C[C@H](N(CC(=O)NC)C(=O)c1ccccc1)C2 : 4.538%
* CCCc1cc(C(=O)N(C)Cc2cccc3cnccc23)n(C)n1 : 11.54%

7 of the entries, repeated:

Compound	Percent Effect
CN(CCOCC(F)(F)F)CC1CCN(CCO)CC1	1.693
Cc1cnn(CCNCc2ccccc2OCc2cccnc2)c1	-1.069
CCC(C)(N)c1nc(C(C)C)cc(=O)[nH]1.Cl (stereo unspecified)	6.715
CCOc1cc(C(=O)N(C)C)ccc1NC(=O)C(C)c1ccsc1 (stereo unspecified)	-6.24
[H][C@@]12CN(c3ncc(C)cn3)C[C@@]1([H])N(CC1CC1)C(=O)CO2	-1.755
CC(C)(C)C(=O)NCC(=O)Nc1cccnc1	11.4
CC(C)CN1CCN(C)C(CCO)C1 (stereo unspecified)	20.6